At least one peptide structure holds a part that was inferred or is arguable (an end, a ring closure or a residue). Where no end group is shown, it is not given here.
Test system: hTERT expressing target cells (Jurkat) transfected with HLA-A2 (A2/K^b)
Conditions: HLA-A2 (A2/K^b) transgenic mice immunized with peptide pulsed syngeneic spleen cells

Sequence	immunogenicity in vivo
ELLRSFFYV [SEQ ID NO:10]	immunogenic in vivo
ILAKFLHWL [SEQ ID NO:9]	immunogenic in vivo

From patent US7794723B2, “Antigenic peptides derived from telomerase” (GemVax AS, priority 1998, dated 2010)
